Results are given in words; binding and its absence hold for the method and conditions named. In cells and extracts the contact can be indirect. Some results given as binding are weak or reduced against the parent protein; the word gives no strength.
Key:
[1] = target: Flag SMAD3 expressed from lentivirus in calvarial osteoblasts (UniProt P84022); assay: co-IP; Flag SMAD3 or SMAD3-K3R from lentivirus in calvarial osteoblast cells; endogenous VDR co-immunoprecipitated
[2] = target: Flag SMAD3-K3R expressed from lentivirus in calvarial osteoblasts (UniProt P84022); assay: as above
[3] = target: endogenous SMAD3 (mouse (endogenous in calvarial osteoblasts)) (UniProt Q8BUN5); assay: co-IP; endogenous VDR and SMAD3 in calvarial osteoblasts

Sequences of proteins named here, by UniProt entry; tags and fusion partners are left off. A change or cut given only in a name is not applied to a line headed by its entry. A line that says so, or that is headed by a name, gives the form on record, which may keep a tag or linker.
UniProt P84022: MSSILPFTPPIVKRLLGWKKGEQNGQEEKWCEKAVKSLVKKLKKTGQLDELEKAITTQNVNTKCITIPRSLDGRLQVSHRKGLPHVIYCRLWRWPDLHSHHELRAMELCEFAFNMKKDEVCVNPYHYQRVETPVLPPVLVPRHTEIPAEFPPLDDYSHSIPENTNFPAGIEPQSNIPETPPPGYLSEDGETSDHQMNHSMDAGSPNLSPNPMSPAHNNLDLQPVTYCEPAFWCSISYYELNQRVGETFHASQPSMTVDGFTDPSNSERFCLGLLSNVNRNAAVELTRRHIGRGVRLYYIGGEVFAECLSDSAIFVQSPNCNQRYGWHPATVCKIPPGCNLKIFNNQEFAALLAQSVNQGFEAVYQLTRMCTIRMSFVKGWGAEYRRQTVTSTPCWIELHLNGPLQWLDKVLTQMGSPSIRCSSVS
Flag SMAD3-K3R expressed from lentivirus in calvarial osteoblasts (P84022, form named): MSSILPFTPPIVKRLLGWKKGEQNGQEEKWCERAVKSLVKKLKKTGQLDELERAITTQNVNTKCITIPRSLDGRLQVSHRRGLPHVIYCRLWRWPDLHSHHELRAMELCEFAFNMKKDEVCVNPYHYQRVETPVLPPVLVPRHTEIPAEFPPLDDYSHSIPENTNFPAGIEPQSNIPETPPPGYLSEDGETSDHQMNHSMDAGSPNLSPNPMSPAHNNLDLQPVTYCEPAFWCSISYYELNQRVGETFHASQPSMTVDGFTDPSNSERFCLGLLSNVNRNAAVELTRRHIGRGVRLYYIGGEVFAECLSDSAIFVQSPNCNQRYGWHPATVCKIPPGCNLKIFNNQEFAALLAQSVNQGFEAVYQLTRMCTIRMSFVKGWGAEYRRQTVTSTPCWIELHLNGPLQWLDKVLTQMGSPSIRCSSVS
UniProt Q8BUN5: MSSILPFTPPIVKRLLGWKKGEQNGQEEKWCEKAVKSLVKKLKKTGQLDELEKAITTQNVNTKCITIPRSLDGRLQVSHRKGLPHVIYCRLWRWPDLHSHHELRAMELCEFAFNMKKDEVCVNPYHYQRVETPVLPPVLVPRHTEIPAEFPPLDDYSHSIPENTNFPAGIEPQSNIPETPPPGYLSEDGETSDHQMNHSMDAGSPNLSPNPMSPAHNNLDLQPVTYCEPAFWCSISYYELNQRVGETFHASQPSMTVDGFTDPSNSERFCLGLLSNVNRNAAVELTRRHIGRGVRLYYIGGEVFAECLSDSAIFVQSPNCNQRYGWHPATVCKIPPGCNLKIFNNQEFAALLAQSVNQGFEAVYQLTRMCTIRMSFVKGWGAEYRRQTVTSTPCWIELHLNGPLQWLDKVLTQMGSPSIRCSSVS

Measured: binding

B1: endogenous VDR (vitamin D receptor) (protein, UniProt P48281 1-422)
chain: MEAMAASTSLPDPGDFDRNVPRICGVCGDRATGFHFNAMTCEGCKGFFRRSMKRKALFTCPFNGDCRITKDNRRHCQACRLKRCVDIGMMKEFILTDEEVQRKREMIMKRKEEEALKDSLRPKLSEEQQHIIAILLDAHHKTYDPTYADFRDFRPPIRADVSTGSYSPRPTLSFSGDSSSNSDLYTPSLDMMEPASFSTMDLNEEGSDDPSVTLDLSPLSMLPHLADLVSYSIQKVIGFAKMIPGFRDLTSDDQIVLLKSSAIEVIMLRSNQSFTLDDMSWDCGSQDYKYDITDVSRAGHTLELIEPLIKFQVGLKKLNLHEEEHVLLMAICIVSPDRPGVQDAKLVEAIQDRLSNTLQTYIRCRHPPPGSHQLYAKMIQKLADLRSLNEEHSKQYRSLSFQPENSMKLTPLVLEVFGNEIS
binds: all assays above
